One assay deals with PRPF8-FLAG (UniProt Q6P2Q9). Nature of the assay: affinity purification with mass spectrometry; triple SILAC: FLAG-tagged bait in HEK 293 cells with control siRNA (medium) or siRNA against ZNHIT2 or RUVBL2 (heavy), untransfected cells (light) as control; anti-FLAG M2 magnetic beads, lysis buffer with 100 mM KCl and 0.1% NP-40; MaxQuant.
A further assay has as its target TAP-tagged TSC2, P49815. Kind of assay: affinity purification with mass spectrometry; TAP-MS: TAP-tagged bait induced with 3 uM ponasterone A for 48 h in stable EcR 293 cells; IgG sepharose, TEV cleavage, calmodulin sepharose, LC-MS/MS; soluble and chromatin fractions purified separately, the fraction is not told for these hits. The note with it: remark: other sources report otherwise.

The target in the next assay is T1, TAP-tagged SLC7A6OS (UniProt Q96CW6).
T1 sequence: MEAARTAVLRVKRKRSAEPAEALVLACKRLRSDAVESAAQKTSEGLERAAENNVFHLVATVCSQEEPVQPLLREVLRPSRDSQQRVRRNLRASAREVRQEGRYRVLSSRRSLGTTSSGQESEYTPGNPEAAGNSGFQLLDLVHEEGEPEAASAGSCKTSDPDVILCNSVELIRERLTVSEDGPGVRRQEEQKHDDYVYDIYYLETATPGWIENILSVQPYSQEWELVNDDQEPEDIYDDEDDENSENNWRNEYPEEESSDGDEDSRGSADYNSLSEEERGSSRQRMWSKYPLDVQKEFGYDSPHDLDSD
The description is as above.

The target of assay [1] is T2, TAP-tagged ZNHIT2 (human) (UniProt Q9UHR6).
T2 sequence: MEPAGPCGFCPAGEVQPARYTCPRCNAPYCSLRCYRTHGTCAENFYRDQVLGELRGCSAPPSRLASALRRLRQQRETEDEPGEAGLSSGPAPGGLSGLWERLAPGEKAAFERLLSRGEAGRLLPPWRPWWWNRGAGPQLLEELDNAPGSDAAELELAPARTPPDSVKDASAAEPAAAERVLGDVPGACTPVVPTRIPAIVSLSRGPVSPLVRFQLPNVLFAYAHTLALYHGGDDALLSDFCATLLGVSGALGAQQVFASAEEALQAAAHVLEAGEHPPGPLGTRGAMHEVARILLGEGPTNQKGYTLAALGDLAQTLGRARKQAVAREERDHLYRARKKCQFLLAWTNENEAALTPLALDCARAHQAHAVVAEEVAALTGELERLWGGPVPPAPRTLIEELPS
The assay is described as above.

Another assay has as its target T3, EFTUD2-FLAG (UniProt Q15029).
T3 sequence: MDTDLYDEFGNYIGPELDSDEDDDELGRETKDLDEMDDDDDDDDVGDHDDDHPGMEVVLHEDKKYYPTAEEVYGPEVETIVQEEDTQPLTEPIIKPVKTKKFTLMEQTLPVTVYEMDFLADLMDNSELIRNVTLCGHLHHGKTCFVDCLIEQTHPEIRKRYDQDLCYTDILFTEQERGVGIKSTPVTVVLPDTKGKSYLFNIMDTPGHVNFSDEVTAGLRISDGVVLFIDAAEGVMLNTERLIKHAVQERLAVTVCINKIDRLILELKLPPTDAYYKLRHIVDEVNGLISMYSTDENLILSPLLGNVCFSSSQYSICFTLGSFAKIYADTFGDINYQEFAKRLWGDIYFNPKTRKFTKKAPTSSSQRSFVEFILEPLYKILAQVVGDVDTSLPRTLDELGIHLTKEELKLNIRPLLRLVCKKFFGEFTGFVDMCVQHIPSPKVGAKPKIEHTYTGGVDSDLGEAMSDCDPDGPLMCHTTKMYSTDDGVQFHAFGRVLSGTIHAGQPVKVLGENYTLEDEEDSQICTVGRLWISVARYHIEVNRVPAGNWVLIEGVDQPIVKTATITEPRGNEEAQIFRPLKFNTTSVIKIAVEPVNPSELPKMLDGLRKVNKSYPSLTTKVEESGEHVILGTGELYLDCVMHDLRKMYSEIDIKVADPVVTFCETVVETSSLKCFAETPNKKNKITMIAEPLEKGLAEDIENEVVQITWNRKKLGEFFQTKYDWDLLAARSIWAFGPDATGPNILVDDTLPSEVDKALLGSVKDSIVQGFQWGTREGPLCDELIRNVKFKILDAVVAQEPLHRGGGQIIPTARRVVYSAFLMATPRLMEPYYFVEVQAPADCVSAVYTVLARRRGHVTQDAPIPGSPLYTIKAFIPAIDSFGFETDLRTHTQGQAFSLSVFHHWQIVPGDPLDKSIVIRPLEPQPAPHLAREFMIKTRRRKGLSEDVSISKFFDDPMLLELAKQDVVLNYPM
Nature of the assay: affinity purification with mass spectrometry; triple SILAC: FLAG-tagged bait in HEK 293 cells with control siRNA (medium) or siRNA against ZNHIT2 or RUVBL2 (heavy), untransfected cells (light) as control; anti-FLAG M2 magnetic beads, lysis buffer with 100 mM KCl and 0.1% NP-40; MaxQuant.

A further assay concerns the target T4, TAP-tagged CD2BP2 (UniProt O95400).
T4 sequence: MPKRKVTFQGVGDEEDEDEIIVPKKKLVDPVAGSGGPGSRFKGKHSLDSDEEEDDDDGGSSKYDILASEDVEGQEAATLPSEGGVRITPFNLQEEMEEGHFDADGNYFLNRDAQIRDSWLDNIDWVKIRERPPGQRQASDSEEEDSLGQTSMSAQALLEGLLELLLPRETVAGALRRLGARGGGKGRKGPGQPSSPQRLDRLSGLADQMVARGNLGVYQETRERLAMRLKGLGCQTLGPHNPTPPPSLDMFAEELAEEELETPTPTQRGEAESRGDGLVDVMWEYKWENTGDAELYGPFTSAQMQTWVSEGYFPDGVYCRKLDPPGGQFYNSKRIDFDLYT
Kind of assay: affinity purification with mass spectrometry; TAP-MS: TAP-tagged bait induced with 3 uM ponasterone A for 48 h in stable EcR 293 cells; IgG sepharose, TEV cleavage, calmodulin sepharose, LC-MS/MS; soluble and chromatin fractions purified separately, the fraction is not told for these hits.

The target of the next assay is T5, TAP-tagged AAR2 (UniProt Q9Y312).
T5 sequence: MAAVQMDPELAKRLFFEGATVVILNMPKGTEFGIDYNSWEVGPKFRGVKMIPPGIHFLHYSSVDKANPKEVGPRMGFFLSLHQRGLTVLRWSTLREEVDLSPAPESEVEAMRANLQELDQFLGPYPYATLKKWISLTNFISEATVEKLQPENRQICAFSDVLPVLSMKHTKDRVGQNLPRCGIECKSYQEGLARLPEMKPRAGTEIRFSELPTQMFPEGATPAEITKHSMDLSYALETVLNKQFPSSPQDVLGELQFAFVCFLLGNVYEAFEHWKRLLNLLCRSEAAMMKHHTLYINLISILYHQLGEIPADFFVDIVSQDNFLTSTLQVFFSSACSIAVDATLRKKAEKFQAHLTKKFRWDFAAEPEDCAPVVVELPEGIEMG
The assay is described as above.

Results are given in words; binding and its absence hold for the method and conditions named. Binding seen in cells or lysates may run through a third protein. A yes stands for co-enrichment or nearness to the bait. Other partners may have been found. For some of these results: Where a sequence is shown, tags or fusion partners need not be part of it.

Data on 5 molecules can be found in paper PMC5460035.

B1: SNRNP40 (protein, UniProt Q96DI7 1-357)
chain: MIEQQKRKGPELPLVPVKRQRHELLLGAGSGPGAGQQQATPGALLQAGPPRCSSLQAPIMLLSGHEGEVYCCKFHPNGSTLASAGFDRLILLWNVYGDCDNYATLKGHSGAVMELHYNTDGSMLFSASTDKTVAVWDSETGERVKRLKGHTSFVNSCYPARRGPQLVCTGSDDGTVKLWDIRKKAAIQTFQNTYQVLAVTFNDTSDQIISGGIDNDIKVWDLRQNKLTYTMRGHADSVTGLSLSSEGSYLLSNAMDNTVRVWDVRPFAPKERCVKIFQGNVHNFEKNLLRCSWSPDGSKIAAGSADRFVYVWDTTSRRILYKLPGHAGSINEVAFHPDEPIIISASSDKRLYMGEIQ
B1: the binding entry in the assay with PRPF8-FLAG is reported as “binds”.

B2: TBC1D7, Q9P0N9 1-293 (protein)
chain: MTEDSQRNFRSVYYEKVGFRGVEEKKSLEILLKDDRLDTEKLCTFSQRFPLPSMYRALVWKVLLGILPPHHESHAKVMMYRKEQYLDVLHALKVVRFVSDATPQAEVYLRMYQLESGKLPRSPSFPLEPDDEVFLAIAKAMEEMVEDSVDCYWITRRFVNQLNTKYRDSLPQLPKAFEQYLNLEDGRLLTHLRMCSAAPKLPYDLWFKRCFAGCLPESSLQRVWDKVVSGSCKILVFVAVEILLTFKIKVMALNSAEKITKFLENIPQDSSDAIVSKAIDLWHKHCGTPVHSS
For the molecule B2, the binding result in the assay with TAP-tagged TSC2, P49815 is recorded as “binds”.

B3: EAPP (protein, UniProt Q56P03 1-285)
chain: MNRLPDDYDPYAVEEPSDEEPALSSSEDEVDVLLHGTPDQKRKLIRECLTGESESSSEDEFEKEMEAELNSTMKTMEDKLSSLGTGSSSGNGKVATAPTRYYDDIYFDSDSEDEDRAVQVTKKKKKKQHKIPTNDELLYDPEKDNRDQAWVDAQRRGYHGLGPQRSRQQQPVPNSDAVLNCPACMTTLCLDCQRHESYKTQYRAMFVMNCSINKEEVLRYKASENRKKRRVHKKMRSNREDAAEKAETDVEEIYHPVMCTECSTEVAVYDKDEVFHFFNVLASHS
For the molecule B3, the binding result (with TAP-tagged SLC7A6OS; in assay [1]) was “binds” throughout.

B4: ZNHIT2 (protein, UniProt Q9UHR6 1-403)
chain: MEPAGPCGFCPAGEVQPARYTCPRCNAPYCSLRCYRTHGTCAENFYRDQVLGELRGCSAPPSRLASALRRLRQQRETEDEPGEAGLSSGPAPGGLSGLWERLAPGEKAAFERLLSRGEAGRLLPPWRPWWWNRGAGPQLLEELDNAPGSDAAELELAPARTPPDSVKDASAAEPAAAERVLGDVPGACTPVVPTRIPAIVSLSRGPVSPLVRFQLPNVLFAYAHTLALYHGGDDALLSDFCATLLGVSGALGAQQVFASAEEALQAAAHVLEAGEHPPGPLGTRGAMHEVARILLGEGPTNQKGYTLAALGDLAQTLGRARKQAVAREERDHLYRARKKCQFLLAWTNENEAALTPLALDCARAHQAHAVVAEEVAALTGELERLWGGPVPPAPRTLIEELPS
B4: the binding entry with PRPF8-FLAG, with EFTUD2-FLAG, with TAP-tagged CD2BP2 and with TAP-tagged AAR2 was “binds” each time.

B5: SLC7A6OS (protein, UniProt Q96CW6 1-309)
chain: MEAARTAVLRVKRKRSAEPAEALVLACKRLRSDAVESAAQKTSEGLERAAENNVFHLVATVCSQEEPVQPLLREVLRPSRDSQQRVRRNLRASAREVRQEGRYRVLSSRRSLGTTSSGQESEYTPGNPEAAGNSGFQLLDLVHEEGEPEAASAGSCKTSDPDVILCNSVELIRERLTVSEDGPGVRRQEEQKHDDYVYDIYYLETATPGWIENILSVQPYSQEWELVNDDQEPEDIYDDEDDENSENNWRNEYPEEESSDGDEDSRGSADYNSLSEEERGSSRQRMWSKYPLDVQKEFGYDSPHDLDSD
On to B5, for which the binding result with TAP-tagged CD2BP2 and with TAP-tagged AAR2 was “binds” each time.
